# The other results are listed elsewhere or left out.
# Biological target: T1, OsSMF1 (Oryza sativa, UniProt Q6ZLB0 1-436)
# T1 sequence: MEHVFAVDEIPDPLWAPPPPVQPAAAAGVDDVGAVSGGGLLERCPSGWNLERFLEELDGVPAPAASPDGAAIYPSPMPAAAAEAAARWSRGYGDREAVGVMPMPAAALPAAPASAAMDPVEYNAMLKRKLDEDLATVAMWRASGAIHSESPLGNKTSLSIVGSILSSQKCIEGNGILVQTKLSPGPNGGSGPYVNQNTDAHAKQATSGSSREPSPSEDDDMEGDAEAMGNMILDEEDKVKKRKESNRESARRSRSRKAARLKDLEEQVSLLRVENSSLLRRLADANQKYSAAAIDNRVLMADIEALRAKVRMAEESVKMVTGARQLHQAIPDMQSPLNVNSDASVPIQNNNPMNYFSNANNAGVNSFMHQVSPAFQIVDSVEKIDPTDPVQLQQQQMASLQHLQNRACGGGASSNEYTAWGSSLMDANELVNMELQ
# Experiment: protein-binding microarray (RPBM); PBS, 2% BSA, 51.3 ng/ul salmon testes DNA, 50 uM zinc acetate, 200 nM TF, 25 C, 1 h; high values mean tight binding
# Conditions: protein: recombinant; tags: N-terminal polyhistidine and DsRed monomer fusion (pET32a); chain copies: 2; label: CyDye5-dUTP incorporated in the synthesized complementary strand; 3' TTTTT single-stranded linker to array surface; dsDNA, one strand shown
# Method in brief: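 For the binding signal, per-feature fluorescence intensity was read in arbitrary units on an Axon 4000B scanner. Before scanning, a 2% BSA-blocked custom Agilent array made double-stranded with Cy5-dUTP was washed after 1 h at 25 °C with 200 nM protein and 50 µM zinc acetate. The proteins were Ni–NTA-purified transcription factors with N-terminal polyhistidine and DsRed fusions, expressed in E. coli BL21-CodonPlus.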
row,Sequence,binding signal
1,AGGAGCTTCCCGTCCACGTGCGCGGAACGCACGCTACCGCCGGAGTCACCTAGTGCAG,8250 fluorescence intensity (a.u.)
2,ACCCGCCCTTGTTGCGTTGCGTCGGCGTATATGTACGCACCGGAGTCACCTAGTGCAG,3430 fluorescence intensity (a.u.)
3,GAGGGGATGACGGTGGTCTCGGCAGCGGATGACGGCGGCGCGGAGTCACCTAGTGCAG,4490 fluorescence intensity (a.u.)
4,CCGCCGCCGCCTTGCTCTCCTTCCCACCTGTTGGCTGGCGCGGAGTCACCTAGTGCAG,3470 fluorescence intensity (a.u.)
5,GAAGAGTGATGAGTGATGAGAATTGAGATCCCAATCCTGACGGAGTCACCTAGTGCAG,4290 fluorescence intensity (a.u.)
6,ACTCCCGGCCGCTGCCCGGTGACTCGCCGCCGGCGACCGCCGGAGTCACCTAGTGCAG,24700 fluorescence intensity (a.u.)
7,ATCATCATCATCATCGTCGTTGTCGTCATCATCACTATTACGGAGTCACCTAGTGCAG,6220 fluorescence intensity (a.u.)
8,CTCCGCAGTCGTAGGCCCACGCGAACCATTCCGTGTGCAACGGAGTCACCTAGTGCAG,52000 fluorescence intensity (a.u.)
9,ATCGGATACGGACACGTATCGGACACGGCCGGATACGTGTCGGAGTCACCTAGTGCAG,5470 fluorescence intensity (a.u.)
10,ACGGCACGGCCCGCTACAGGAGCCGTGCCTAACGGGCCGTCGGAGTCACCTAGTGCAG,3740 fluorescence intensity (a.u.)
11,GGATTTGGCTTAGCGTGAAGGAGCTGGCATGCATGCATCGCGGAGTCACCTAGTGCAG,3370 fluorescence intensity (a.u.)
12,AGTCCCACTCATCTTTATATAGTATAAGGTGCTGAGGTGTCGGAGTCACCTAGTGCAG,6990 fluorescence intensity (a.u.)
13,GGCGTTATAATAAGGATGTGTATTGCTACCCTAAATCAGTCGGAGTCACCTAGTGCAG,3250 fluorescence intensity (a.u.)
14,AGACTGGTTTACGCTCCCCGAATGGTCGCCTATTCAGGTGCGGAGTCACCTAGTGCAG,26000 fluorescence intensity (a.u.)
15,CCCACGGTGCGGCGCCCCGCCGTACGTCGCCGCGTGCGCGCGGAGTCACCTAGTGCAG,3300 fluorescence intensity (a.u.)
16,GCGACGCCTGCGTCGAGCACCACCTGCAGCGTGGCCAGGGCGGAGTCACCTAGTGCAG,3450 fluorescence intensity (a.u.)
17,CGGCTTGACGAGGATGATGCAGCGCTGGAACATGGCGGCCCGGAGTCACCTAGTGCAG,4150 fluorescence intensity (a.u.)
18,CTTCAATGATTTTGTCGTCATCACCAATGCGGATCATATGCGGAGTCACCTAGTGCAG,4920 fluorescence intensity (a.u.)
19,TTCCCACCCGCACTCCACTTGCGCGCCACGCCATGGATGACGGAGTCACCTAGTGCAG,5490 fluorescence intensity (a.u.)
20,CCCCGCGCGCACCCACCCCACCGAAGGGGAGAGGCAGGCACGGAGTCACCTAGTGCAG,24600 fluorescence intensity (a.u.)
21,GCTTCACGTGGACCGCGGCCATCATCATCAGGCTGCAGCTCGGAGTCACCTAGTGCAG,3730 fluorescence intensity (a.u.)

# As a working copy, some entries already given.
row,Sequence,binding signal
14,AGACTGGTTTACGCTCCCCGAATGGTCGCCTATTCAGGTGCGGAGTCACCTAGTGCAG,26000 fluorescence intensity (a.u.)
15,CCCACGGTGCGGCGCCCCGCCGTACGTCGCCGCGTGCGCGCGGAGTCACCTAGTGCAG,3300 fluorescence intensity (a.u.)
16,GCGACGCCTGCGTCGAGCACCACCTGCAGCGTGGCCAGGGCGGAGTCACCTAGTGCAG,3450 fluorescence intensity (a.u.)
17,CGGCTTGACGAGGATGATGCAGCGCTGGAACATGGCGGCCCGGAGTCACCTAGTGCAG,4150 fluorescence intensity (a.u.)
18,CTTCAATGATTTTGTCGTCATCACCAATGCGGATCATATGCGGAGTCACCTAGTGCAG,4920 fluorescence intensity (a.u.)
19,TTCCCACCCGCACTCCACTTGCGCGCCACGCCATGGATGACGGAGTCACCTAGTGCAG,5490 fluorescence intensity (a.u.)
20,CCCCGCGCGCACCCACCCCACCGAAGGGGAGAGGCAGGCACGGAGTCACCTAGTGCAG,24600 fluorescence intensity (a.u.)

# The list goes on:

row,Sequence,binding signal
1,GGCCGGGCCTAGGACCCAGTCGGGCGCACGCGCGCGACACCGGAGTCACCTAGTGCAG,16300 fluorescence intensity (a.u.)
2,CTCTTCTTCTCCGGCACCGGCGACAGGGAAGACAGCTGCGCGGAGTCACCTAGTGCAG,34700 fluorescence intensity (a.u.)
3,TGTGACCCTGGTGACACTAGTGTCATCATTGGCAAGCCCCCGGAGTCACCTAGTGCAG,5660 fluorescence intensity (a.u.)
4,CACAAGATGTCTGAAAATTTGCACGTGTGTTGTGGCTCTGCGGAGTCACCTAGTGCAG,3720 fluorescence intensity (a.u.)
5,AATTTCACCAGGAGATGAGTCTGCTGACTGTTCGGAAGAACGGAGTCACCTAGTGCAG,4060 fluorescence intensity (a.u.)
6,AGAAAGCCTAATGTACGGCGCCATGGAATTTCAATTGCGTCGGAGTCACCTAGTGCAG,3700 fluorescence intensity (a.u.)
7,CTATGTATATAGTTGCTTAATTGACTTGTCATTAGTATGACGGAGTCACCTAGTGCAG,3330 fluorescence intensity (a.u.)
8,TCTACGACACGGACAACATCATCAAGCGCTACACCTACGACGGAGTCACCTAGTGCAG,4370 fluorescence intensity (a.u.)
9,GCATCCGTAACACCAAGGTCAGCTACCACACCTTGGCCTACGGAGTCACCTAGTGCAG,20800 fluorescence intensity (a.u.)
10,CGCCGCCACAACCGCGCGCCGTCACCGCCGCGTGCCGTCACGGAGTCACCTAGTGCAG,5070 fluorescence intensity (a.u.)
11,CACCCCTAAGTGTGAGTGTGTATTTGTAACCCAAAAGTCACGGAGTCACCTAGTGCAG,35600 fluorescence intensity (a.u.)
12,GCTTCCACGTCGCGCTTGCCAGCCATGAGCCTTTGTGTCACGGAGTCACCTAGTGCAG,4090 fluorescence intensity (a.u.)
13,TGCCCGCGAAATTTGACCGTTGCTGCGCCACGTCACGCTCCGGAGTCACCTAGTGCAG,30800 fluorescence intensity (a.u.)
14,ATTCGCAAAGGAAACGTGCCGCATGCATGCCAAAGCCATCCGGAGTCACCTAGTGCAG,3620 fluorescence intensity (a.u.)
15,AATCCTGGATACGGTAGATCACTGGGAGGCGTAGACGAAGCGGAGTCACCTAGTGCAG,3450 fluorescence intensity (a.u.)
16,AGGGGATTAATCTGGCTGGAGTGCACATGACGCTGCACATCGGAGTCACCTAGTGCAG,4590 fluorescence intensity (a.u.)
17,GATATCTGCATTATTCTGTGATGCAGTTTTGGTTGGCTTGCGGAGTCACCTAGTGCAG,30200 fluorescence intensity (a.u.)
18,ACTATCAAGTTCGGATTAACCGAACCAATACAACCACTCACGGAGTCACCTAGTGCAG,21900 fluorescence intensity (a.u.)
19,TAGCATAGCCAACTGCTGACTCCAAATTATCTATAGTCAACGGAGTCACCTAGTGCAG,3850 fluorescence intensity (a.u.)
20,ATCGCCACCTCTTTTGTTGCCAAAACAAAGCTTTTGCCCACGGAGTCACCTAGTGCAG,3550 fluorescence intensity (a.u.)
21,CACCGCCCATGGCCAACAACGTCATGAGGCGCCATGGTGGCGGAGTCACCTAGTGCAG,4060 fluorescence intensity (a.u.)
